Experimental findings from article PMC7819943, “Rice protein-binding microarrays: a tool to detect cis-acting elements near promoter regions in rice” are described below.

Amino acid sequences for entries named in this document (tags omitted).
UniProt Q0JBA9, entry or part of it: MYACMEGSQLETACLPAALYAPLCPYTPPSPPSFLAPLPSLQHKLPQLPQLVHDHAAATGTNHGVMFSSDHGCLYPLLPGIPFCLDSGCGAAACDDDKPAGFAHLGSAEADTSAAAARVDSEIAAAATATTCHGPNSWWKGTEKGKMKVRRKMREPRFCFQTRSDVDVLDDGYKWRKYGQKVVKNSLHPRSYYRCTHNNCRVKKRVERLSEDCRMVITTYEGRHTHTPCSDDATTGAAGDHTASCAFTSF

This is one part of the list.

The test deals with OsWRKY34 (Oryza sativa, UniProt Q0JBA9 1-250). Nature of the test: protein-binding microarray (RPBM); PBS, 2% BSA, 51.3 ng/ul salmon testes DNA, 50 uM zinc acetate, 200 nM TF, 25 C, 1 h; high values mean tight binding. The note with it: protein: recombinant; tags: N-terminal polyhistidine and DsRed monomer fusion (pET32a); label: CyDye5-dUTP incorporated in the synthesized complementary strand; 3' TTTTT single-stranded linker to array surface; dsDNA, one strand shown. Summed up:
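For the binding signal, per-feature fluorescence intensity was read in arbitrary units on an Axon 4000B scanner. Before scanning, a 2% BSA-blocked custom Agilent array made double-stranded with Cy5-dUTP was washed after 1 h at 25 °C with 200 nM protein and 50 µM zinc acetate. The proteins were Ni–NTA-purified transcription factors with N-terminal polyhistidine and DsRed fusions, expressed in E. coli BL21-CodonPlus.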
As for “ACACCGTTGACTTTTCGACTAACGTTTGACCATTTGTTTTCGGAGTCACCTAGTGCAG”, the binding signal is 49300 fluorescence intensity (a.u.).

Take “ATCAGTTTCTCTCAAATTTTAGTTTTCATATTTTGTACTCCGGAGTCACCTAGTGCAG”: the binding signal is 8680 fluorescence intensity (a.u.).

Regarding “GGGCTTTTTGGAAATTTGCTTTATTGCGTGCTGTCACATTCGGAGTCACCTAGTGCAG”, the binding signal is 10600 fluorescence intensity (a.u.).

As to “TACTTTTCCTTCTCGACACTACAGTGCCTTCACCTCTTTTCGGAGTCACCTAGTGCAG”, the binding signal is 9600 fluorescence intensity (a.u.).

Consider “GGCAGTATTGTTTTTACCTCCTGCTACCTTACTTACATGGCGGAGTCACCTAGTGCAG”, for which the binding signal is 9700 fluorescence intensity (a.u.).

On to “ATCCTCGCGCCATTAGCTTCGCCTCGACGAGTTGATTCCACGGAGTCACCTAGTGCAG”, for which the binding signal was 11400 fluorescence intensity (a.u.).

With “GGTTGTCTATTTTATTTTCTGCGGAGGGAGTAATGTTTTTCGGAGTCACCTAGTGCAG”, the binding signal was 14400 fluorescence intensity (a.u.).

In the case of “TCTTCACACACACACGCACAACCAACCGCGCCGCCCACACCGGAGTCACCTAGTGCAG”, the binding signal was 8880 fluorescence intensity (a.u.).

Take “GCACGGGCCCACCCGACTTCGGTTGACCAGGGAGCCCACCCGGAGTCACCTAGTGCAG”: the binding signal is 8610 fluorescence intensity (a.u.).

“TCATCCACTAATATAAGAGATTTTGACTTTCTCTTACACTCGGAGTCACCTAGTGCAG”: the binding signal is 8460 fluorescence intensity (a.u.).

Turning to “ACTTATTTTCCTGTTTCATTTAGATGGCCAGTGTCGCACACGGAGTCACCTAGTGCAG”, the binding signal is 8860 fluorescence intensity (a.u.).

Regarding “ATATTTCCTGTTTGCTCTGTGTTTTCTTCCACCTTCCATTCGGAGTCACCTAGTGCAG”, the binding signal is 9830 fluorescence intensity (a.u.).

For the sequence “CAGGGGCATTTTTCTCCGTTCGGGCATTATAGCGTGTAGTCGGAGTCACCTAGTGCAG”, the binding signal is 8320 fluorescence intensity (a.u.).

For “TGTCCAGTACTAGTTTTTTTTATGATGTAGAGTTTATGGACGGAGTCACCTAGTGCAG”, the binding signal is 8490 fluorescence intensity (a.u.).

In the case of “AATTTGTATCGTTGTTTGCTTGAGCCATATTTATGTTACACGGAGTCACCTAGTGCAG”, the binding signal was 10700 fluorescence intensity (a.u.).

Consider “GATTCAAAATTCTTTCCTATATCTTCCATTTAAATTTTTTCGGAGTCACCTAGTGCAG”, for which the binding signal is 9520 fluorescence intensity (a.u.).

“CGCCGCTACTCCTTCCCTCCTCGCGCGGCCGCCGCCGCCGCGGAGTCACCTAGTGCAG”: the binding signal is 8270 fluorescence intensity (a.u.).

As to “AGACAGAGTTTGACTTCCATGGTCTTCCTACTTCTTACCTCGGAGTCACCTAGTGCAG”, the binding signal was 9720 fluorescence intensity (a.u.).

Regarding “CTTCCTCTTTGGTTTTTCAGATCGATTGATTCGTGTTGAACGGAGTCACCTAGTGCAG”, the binding signal was 9620 fluorescence intensity (a.u.).

For the sequence “GTCTATAAAACCGCGACCTATGCTCTCACGCGCGGACCACCGGAGTCACCTAGTGCAG”, the binding signal is 10700 fluorescence intensity (a.u.).

Regarding “TTCATCGAAGTTTATTTTTCAGCCTTTACTTTTAGATCGCCGGAGTCACCTAGTGCAG”, the binding signal was 8620 fluorescence intensity (a.u.).

Consider “CATTTGTCGTTGGGTTTGCAATTAGCGCTCCTCAGATATTCGGAGTCACCTAGTGCAG”, for which the binding signal was 12800 fluorescence intensity (a.u.).

With “AGACAAACCCTGATTTCCGTGTCCAACATTTAACCGTCCGCGGAGTCACCTAGTGCAG”, the binding signal is 8690 fluorescence intensity (a.u.).

As to “GCACGCACCACCTCGCGCGGTATAAATTCCCCGCGCCCTCCGGAGTCACCTAGTGCAG”, the binding signal was 8750 fluorescence intensity (a.u.).

With “ACCACTCCTCCTACTCGACCTCGCGCTCGCTCGCTCGCCCCGGAGTCACCTAGTGCAG”, the binding signal was 8540 fluorescence intensity (a.u.).

For the sequence “TTTTGCTCGCTCCTGTAGAATCTCGTTTCCTTGCACGTAACGGAGTCACCTAGTGCAG”, the binding signal is 9650 fluorescence intensity (a.u.).

As to “AAATTTTGACTCCTTCAGTTAATGATTTTCGTATACAAATCGGAGTCACCTAGTGCAG”, the binding signal is 8180 fluorescence intensity (a.u.).

As to “ATAATCGAACTGATTCATATGAAAATACTGTATTTTTTTCCGGAGTCACCTAGTGCAG”, the binding signal is 8280 fluorescence intensity (a.u.).

Take “GCCCATTTTGATCTTGGCCGTCCATTCCATTCCAGTACGACGGAGTCACCTAGTGCAG”: the binding signal is 11600 fluorescence intensity (a.u.).

As to “ACTGTGCTTCTTCTCCGTGTTGCCACCTCATCGCCATCGCCGGAGTCACCTAGTGCAG”, the binding signal is 9650 fluorescence intensity (a.u.).

Turning to “CACGCATGCCGCTCCCATTCGCGCGCGACACGAACGCGCCCGGAGTCACCTAGTGCAG”, the binding signal was 8410 fluorescence intensity (a.u.).

With “AAACCAAACCCTAATATTTCCACCACCATCTACCCATCCTCGGAGTCACCTAGTGCAG”, the binding signal was 8350 fluorescence intensity (a.u.).

With “TATGTTTGACTAGTTTGTCACTGCTACTCCATTCGTCCCACGGAGTCACCTAGTGCAG”, the binding signal is 11300 fluorescence intensity (a.u.).

As for “TGTGCTTCTTTTTTTAATTTCTCTCTCTGTTTGCTTCTCTCGGAGTCACCTAGTGCAG”, the binding signal is 9720 fluorescence intensity (a.u.).

As to “GAAATCCAAATATGTCTGTTGATCGCTTCCATTTTTACTCCGGAGTCACCTAGTGCAG”, the binding signal was 8800 fluorescence intensity (a.u.).

On to “GATCTATATAACCCCGCGCCATGCAACGCCGCCCCGGCTTCGGAGTCACCTAGTGCAG”, for which the binding signal was 8380 fluorescence intensity (a.u.).

Consider “GTACGTCCAGCCTGCAGCAATTCGGCCGCCCGCCCGTTGACGGAGTCACCTAGTGCAG”, for which the binding signal is 10700 fluorescence intensity (a.u.).

For “ATCCAACAGACTGTCCATTCCACACTCTCCATTTTTACTTCGGAGTCACCTAGTGCAG”, the binding signal was 8960 fluorescence intensity (a.u.).

For the sequence “CGTCGTGACCCGCGCCCTGAGTTGGTTGCCTGCCTCGGATCGGAGTCACCTAGTGCAG”, the binding signal was 8340 fluorescence intensity (a.u.).

Take “TATCATATACTCCTACGTCCCGTGTGGTGGTCCAGATGAGCGGAGTCACCTAGTGCAG”: the binding signal is 8110 fluorescence intensity (a.u.).

As for “CACCCGTCGCGTCCAAAATCCAAATCCGCCGCCGCGATCGCGGAGTCACCTAGTGCAG”, the binding signal was 9490 fluorescence intensity (a.u.).

Take “TCCTTTGACTTTTTAACCAGCTGTCTACTAGTAGTACTACCGGAGTCACCTAGTGCAG”: the binding signal was 17800 fluorescence intensity (a.u.).
